# Test results published in PubChem BioAssay AID720551 (National Center for Advancing Translational Sciences (NCATS), 2013).
# Sequences of proteins named here, by UniProt entry; tags and fusion partners are left off. A change or cut given only in a name is not applied to a line headed by its entry.
# UniProt Q12809: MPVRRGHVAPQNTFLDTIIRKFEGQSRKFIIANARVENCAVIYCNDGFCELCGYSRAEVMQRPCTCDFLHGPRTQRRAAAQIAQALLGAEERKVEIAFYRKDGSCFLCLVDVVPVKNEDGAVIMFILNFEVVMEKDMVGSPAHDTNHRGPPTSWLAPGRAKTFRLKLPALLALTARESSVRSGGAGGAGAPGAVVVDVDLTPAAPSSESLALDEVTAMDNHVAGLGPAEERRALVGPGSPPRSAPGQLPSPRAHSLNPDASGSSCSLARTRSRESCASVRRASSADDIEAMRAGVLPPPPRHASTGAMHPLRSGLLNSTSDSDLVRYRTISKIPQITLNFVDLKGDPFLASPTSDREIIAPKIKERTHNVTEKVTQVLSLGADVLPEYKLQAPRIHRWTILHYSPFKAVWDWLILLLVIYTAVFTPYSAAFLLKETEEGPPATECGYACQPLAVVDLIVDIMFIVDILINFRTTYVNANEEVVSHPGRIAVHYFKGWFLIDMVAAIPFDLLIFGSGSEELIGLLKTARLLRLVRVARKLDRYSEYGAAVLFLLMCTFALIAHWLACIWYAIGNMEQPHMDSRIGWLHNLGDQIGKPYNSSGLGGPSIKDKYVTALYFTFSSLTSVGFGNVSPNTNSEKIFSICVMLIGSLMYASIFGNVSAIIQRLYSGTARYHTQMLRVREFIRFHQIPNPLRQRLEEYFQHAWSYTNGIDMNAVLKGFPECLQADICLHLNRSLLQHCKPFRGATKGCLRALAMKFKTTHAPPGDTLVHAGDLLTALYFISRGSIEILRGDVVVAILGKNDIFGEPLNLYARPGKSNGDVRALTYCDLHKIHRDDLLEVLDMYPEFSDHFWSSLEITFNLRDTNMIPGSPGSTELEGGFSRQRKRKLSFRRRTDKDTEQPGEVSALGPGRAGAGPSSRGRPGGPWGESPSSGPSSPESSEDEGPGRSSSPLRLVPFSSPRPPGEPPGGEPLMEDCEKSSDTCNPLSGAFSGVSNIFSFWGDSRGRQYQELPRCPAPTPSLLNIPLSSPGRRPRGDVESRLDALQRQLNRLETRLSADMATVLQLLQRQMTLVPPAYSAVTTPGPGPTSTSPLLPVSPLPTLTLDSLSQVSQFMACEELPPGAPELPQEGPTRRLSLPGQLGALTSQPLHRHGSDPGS
# In all, about 340,000 compounds went through this assay and about 1,300 (0.38%) were called active. This list was built around the results that the source calls inconclusive (neither active nor inactive); the mix of calls is not that of the screen.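 Rule for the calls: active = maximum activity change below -70%; inconclusive = maximum activity change between -70% and -50%; inactive = maximum activity change above -50%.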
# Target: Voltage-gated inwardly rectifying potassium channel KCNH2 (Homo sapiens) (UniProt Q12809)
# Test: qHTS for Inhibitors of KCHN2 3.1: Wildtype qHTS
# Details: U2OS, BacMam KCNH2, thallium flux FluxOr; at 1.84 µM, stronger effect = lower value
# In short: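 U2OS cells were transduced with wild-type KCNH2 virus (2.03 x 10^8 / mL) for 4 h at room temperature, then cultured overnight at 37 C. Thallium flux was read with FluxOr dye. Rate constants were normalized to DMSO controls.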
# % is set by controls: 0 for no effect and ±100 for the full control effect.
row,SMILES,activity change
1,COc1ccc(CC2(CO)CCN(Cc3cccn3-c3ccccn3)CC2)cc1,inconclusive: -61.6%
2,COc1ccc(OC)c2c(C)cc(N3CCN(C(=O)c4ccc(F)cc4)CC3)nc12,inactive: 6.09%
3,CCC(CC)NC(=O)Nc1ccccc1C(F)(F)F,active: -112%
4,Cc1ccc(S(=O)(=O)CC(=O)Nc2ncc([N+](=O)[O-])s2)cc1,inactive: -2.13%
5,COc1cc2c(cc1OC)CN(C(=O)/C=C/c1cc(OC)c(OC)c(OC)c1)CC2,inactive: -0.718%
6,COc1ccc(-c2nc(=S)c3ccc4ccccc4c3[nH]2)cc1,inconclusive: -60.4%
7,Cc1cc(C)n(CCCN2CCC(C(=O)Nc3cccc(-c4cccc(F)c4)c3)CC2)n1,active: -105%
8,COc1ccc(/C=N/NC(=O)c2ccc(C)cc2)cc1CN1CCN(c2ccc(F)cc2)CC1,active: -72.1%
9,CCCCc1cc(=O)oc2cc(OCc3cc(OC)c(OC)c(OC)c3)c(Cl)cc12,inconclusive: -55.7%
10,CC(OC(=O)[C@@H](NS(=O)(=O)c1ccccc1)C(C)C)C(=O)c1c(N)n(C)c(=O)n(C)c1=O (some centres not stated),inconclusive: -57.7%
11,CC(=O)c1ccc(Nc2nc(-c3cccnc3)cs2)cc1,active: -81.2%
12,OC(CNCC1(N2CCCCC2)CCCCC1)COc1ccc(Cl)cc1Cl (configuration not stated),inconclusive: -66.8%
13,CC1(C)C=C2C(=NN(c3ccccc3)C(N)=C2C#N)CO1,inconclusive: -65.1%
14,COc1cccc(C(=O)Nc2ccc(NC(=O)c3ccco3)nc2)c1,inconclusive: -54.1%
15,O=C(O)c1cc(Nc2cc(Cl)c3nonc3c2[N+](=O)[O-])ccc1O,inactive: -18.3%
16,Fc1cccc2sc(Nc3nnc(-c4ccco4)o3)nc12,inconclusive: -55%
17,CCOC(=O)c1sc(NC(=O)c2c(CC)noc2C)nc1C,inactive: -0.484%
18,CCOC(=O)c1ccc(NC(=S)N(CCCN2CCCC2)Cc2cccs2)cc1,inconclusive: -51.7%
19,O=C(O)c1ccccc1C=NN=C1c2ccccc2-c2ccccc21,inconclusive: -51.9%
20,COc1ccc(-c2csc3nc(-c4cccnc4)nc(Cl)c23)cc1OC,inactive: -10.9%
21,CCC(C)Sc1cccc(-c2nc3ccc(C)cn3c2NC2CCCCC2)c1 (configuration not stated),inactive: -6.43%

# 3 entries from above, ordered by SMILES length, largest number first:
row,SMILES,activity change
4,Cc1ccc(S(=O)(=O)CC(=O)Nc2ncc([N+](=O)[O-])s2)cc1,inactive: -2.13%
18,CCOC(=O)c1ccc(NC(=S)N(CCCN2CCCC2)Cc2cccs2)cc1,inconclusive: -51.7%
1,COc1ccc(CC2(CO)CCN(Cc3cccn3-c3ccccn3)CC2)cc1,inconclusive: -61.6%

# (list continues)

row,SMILES,activity change
1,COc1ccc(-c2noc(CSc3nc(N)cc(=O)[nH]3)n2)cc1,inconclusive: -69.4%
2,CN1CCN(c2ccc([N+](=O)[O-])cc2NC(=O)c2ccccc2Cl)CC1,inconclusive: -62.8%
3,Nc1ccc(Oc2ccc([N+](=O)[O-])cc2[N+](=O)[O-])cc1,inactive: 9.88%
4,COCCNc1ccnc2c(Cl)cccc12,inactive
5,CCC(Sc1nc2cc3c(cc2c(=O)n1Cc1ccco1)OCO3)C(=O)Nc1cccc(OC)c1 (configuration not stated),inconclusive: -57.2%
6,CNC(=S)N(CCc1c(C)[nH]c2ccccc12)Cc1cccnc1,active: -133%
7,Cc1ccc(CNS(=O)(=O)c2c(C)nc3scc(C)n3c2=O)cc1,inconclusive: -55.3%
8,Cc1ccc(C)c(S(=O)(=O)N/N=C2/CCCc3ccccc32)c1,inactive: -6.21%
9,CCn1c(N2CCN(C(=O)/C=C/c3ccccc3)CC2)nc2ccccc21,inconclusive: -56.6%
10,CCc1ccc2nc(N(CCCN(C)C)C(=O)c3ccc(S(=O)(=O)N4CCCc5ccccc54)cc3)sc2c1,inconclusive: -60.5%
11,COc1cc(Cl)cc(/C=C/c2ccc3ccccc3n2)c1OC(C)=O,inactive: -6.63%
12,COc1ccc(C2CC(c3c(-c4ccccc4)c4cc(Cl)ccc4[nH]c3=O)=NN2S(C)(=O)=O)cc1OC (configuration not stated),inconclusive: -51.2%
13,Cc1cc(C(=O)N/N=C/C=C/c2ccc([N+](=O)[O-])cc2)n[nH]1,inconclusive: -66%
14,COc1ccc(C2=NOC(C(=O)Nc3cc(Br)ccc3O)C2)cc1OC (configuration not stated),inconclusive: -56.8%
15,CCN(C(=O)COC(=O)/C=C/c1ccc(OC(F)F)c(OC)c1)C1CCS(=O)(=O)C1 (configuration not stated),inactive: 11%
16,Cc1cc(C)c2c(n1)sc1c(-c3ccccc3)c(C#N)c(N)nc12,active: -244%
17,CCN1C(=O)[C@@H]2[C@@H](c3ccc(-c4ccc(OC)cc4)cc3)N3CCC[C@@]3(C(=O)OC)[C@@H]2C1=O,inconclusive: -66.8%
18,CN1C(C(=O)NCc2ccc(OC(F)(F)F)cc2)CC2Cn3c(nc4cc(Cl)c(Cl)cc43)C21 (configuration not stated),inconclusive: -68.8%
19,CCOC(=O)N1CCN(C(=O)c2ccc(Cn3c(=S)[nH]c4cc(OCC)c(OCC)cc4c3=O)cc2)CC1,inconclusive: -59.3%
20,CC(C)(C)OC(=O)NCCCCCNC(=O)c1nc[nH]c1C(=O)N1CCN(C(=O)OC(C)(C)C)CC1,inactive: -13.2%
21,O=C1OCc2cc(NC(=O)C3CCCO3)ccc21 (configuration not stated),inactive: -16%
